From patent US20230141981A1, “NOVEL COMPOUNDS AND COMPOSITION FOR TARGETED THERAPY OF KIDNEY-ASSOCIATED CANCERS” (SHANGHAI MICURX PHARMACEUTICALS CO., LTD, priority 2020, published 2023) come the findings set out here.

Each structure is given as a SMILES string. pIC50: −log10 of the molar value. Entries after “also recorded” stand apart in the source; their conditions may differ.

Series [1] can be described thus: Mouse PK: axitinib concentration in blood plasma and kidney tissue post-administration. In kind it is in vivo. The settings on record: oral gavage, single dose 10 mg/kg. The text has this: Preferential accumulation of compounds provided herein in kidneys (or near the site of a kidney cancer) may be evaluated by pharmacokinetic (PK) tests, such as in a standard rat PK test. PK data are generally used to establish the key parameters predictive of the therapy outcome, such as drug concentration (C) at given time points, drug concentration at the target tissue(s) (CTarget), area under the curve (AUC) for a plot monitoring the change in the systemic drug concentration over time, and other parameters. Thus, drug concentration in organ (or body compartment) affected by cancer is important for effective action of anticancer agents (as described, for example, by Zhang et al. in Drug Metabolism and Disposition. 2019, vol. 47, p. 1122).
Representative compounds provided herein have been tested in a rodent PK model of intravenous administration performed analogously to methods described in the monograph Current Protocols in Pharmacology, 2005, 7.1.1-7.1.26, John Wiley & Sons, Inc.
In PK studies, the levels (concentration) of a therapeutic drug is determined in key body compartments, such as blood and select organ tissues, is determined over a given time course. The levels of an active compound in the organ affected by a disease is of particular importance, since such a compound is intended to target the disease therein. For therapy of renal cancers, the targeted organ is kidney.
Additional PK data in rodents for other compounds provided herein are illustrated in the Table 2 below. The data indicated a targeted delivery of anticancer drug axitinib, preferentially released from these compounds into kidneys.

Series [2] has as its system 786-O. Description: In vitro inhibition of cancer cells, CTG assay, 72 h. The series is classed as cell-based. The settings on record: Homo sapiens, 786-0, 72 h incubation. The source says:
(§1) In vitro activity of compounds provided herein may be assessed by standard testing procedures using various cancer cell lines (alongside normal cell comparators), such as described, for example, in ACS Pharmacol. Transl. Sci. 2019, vol. 2, p. 18; J. Med. Chem. 2018, vol. 61, p. 5304; and methods in references cited therein.
(§2) The anticancer activity in vitro (potency) of exemplary compounds provided herein are illustrated by the data in Table 3. Therein, Caki-1 is a human clear cell renal cell carcinoma (ccRCC) line. The ACTHN cell line was derived from the pleural effusion of a patient with metastatic renal carcinoma. The 786-O cell line is a hypertriploid renal cancer cell carcinoma cell line. Generally, cells were plated into […] microplates and pre-incubated for 24 h. Subsequently, the test compound solutions were added, and cells growth inhibition analyzed with 9-point data plot. After 72 h of the incubation, the number and proportion of the viable cells was determined by CTG assay, and IC50 values calculated.

In series [3] the test system is Caki-1. The series is described as above. The series is classed as cell-based. The settings on record: Homo sapiens, Caki-1, 72 h incubation.
From the text: as §1, §2

The subject of series [4] is HK-2. The series can be described thus: In vitro inhibition of non-cancer kidney cells. In kind it is cell-based. As to conditions: Homo sapiens. The method, then: as §2

What is called pIC50 is the negative decadic logarithm of the IC50, by convention in mol/L. Low readings indicate a large IC50, high ones a small IC50. With `CNC(=O)c1ccccc1Sc1ccc2c(/C=C/c3ccccn3)n[nH]c2c1` [Axitinib, N-methyl-2-[[3-[(E)-2-pyridin-2-ylethenyl]-1H-indazol-6-yl]sulfanyl]benzamide], the “Kidney Tissue Conc. (axitinib)” value in series [1] (T = 4 h) is recorded as “T = 4 h: BLQ^c”; in series [1] (T = 4 h, listed as axitinib), “BLQ”; in series [1] (T = 6 h), “T = 6 h: BLQ; also recorded: BLQ^b”. Also, the negative-log IC50 (pIC50) in series [2] was 4.54; in series [3] it was 4.54; in series [4], 4.64.
